{"source": "PubChem BioAssay AID1224826, NIAID, 2016", "screen": "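Knock-downs that raise or lower Tnf reporter signal after endotoxin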 (primary screen)", "cells": "RAW264.7 G9 macrophages from mouse bearing reporters for p65 (GFP) and the Tnf promoter (mCherry)", "reagents": "siRNA pool against mouse genes, 100 nM", "timing": "16 h of LPS stimulation, after 2 days of siRNA transfection", "treatment": "bacterial lipopolysaccharide (Salmonella minnesota R595), 10 ng/ml", "measurement": "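Imaged Tnf reporter mCherry in nuclei, minus background, normalised per plate to the median and expressed as robust z-scores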", "scale": "Tnf reporter robust z-score: higher = stronger Tnf promoter reporter signal after LPS", "call rule": "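a well counts as active at a score of -1.3 or below (Tlr4 knock-down control median) or above 3 (raised signal); controls and wells holding fewer than 50 cells are excluded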", "meaning of the calls": "active = Tnf reporter clearly lowered or raised; inactive = no clear change in Tnf reporter", "note": "In all, the deposit lists about 17,000 reagents; shown is a part drawn at random. About 1,110 of all reagents (6.6%) count as active. 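Active means lowered or raised reporter signal; replicate intensities are raw and not normalised per plate.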 Unmarked entries are inactive. Further read-outs or replicates are left out here."}
{"Gene": "Zfp474", "Tnf reporter robust z-score": 0.26, "fewer than 50 cells in well": "enough cells in well"}
{"Gene": "Rabac1", "Tnf reporter robust z-score": -0.05, "fewer than 50 cells in well": "enough cells in well"}
{"Gene": "Adprs", "Tnf reporter robust z-score": -0.9, "fewer than 50 cells in well": "enough cells in well"}
{"Gene": "Sdf4", "fewer than 50 cells in well": "fewer than 50 cells per well; well left out of calls"}
{"Gene": "Cacna1e", "Tnf reporter robust z-score": -0.24, "fewer than 50 cells in well": "enough cells in well"}
{"Gene": "Bco1", "Tnf reporter robust z-score": 2.09, "fewer than 50 cells in well": "enough cells in well"}
{"Gene": "Hook3", "Tnf reporter robust z-score": -0.92, "fewer than 50 cells in well": "enough cells in well"}
{"Gene": "Mycl", "Tnf reporter robust z-score": 2.18, "fewer than 50 cells in well": "enough cells in well"}

Quoted from the entries so far (2 entries):
{"Gene": "Bco1", "Tnf reporter robust z-score": 2.09, "fewer than 50 cells in well": "enough cells in well"}
{"Gene": "Hook3", "Tnf reporter robust z-score": -0.92, "fewer than 50 cells in well": "enough cells in well"}

Continued.
{"Gene": "Or5c1", "Tnf reporter robust z-score": -0.27, "fewer than 50 cells in well": "enough cells in well"}
{"Gene": "Cfhr1", "Tnf reporter robust z-score": -0.45, "fewer than 50 cells in well": "enough cells in well"}
{"Gene": "Aox1", "Tnf reporter robust z-score": -0.15, "fewer than 50 cells in well": "enough cells in well"}
{"Gene": "Esr2", "Tnf reporter robust z-score": 1.38, "fewer than 50 cells in well": "enough cells in well"}
{"Gene": "Isca1", "Tnf reporter robust z-score": "-1.71 (active)", "fewer than 50 cells in well": "enough cells in well"}
{"Gene": "Or8d4", "Tnf reporter robust z-score": 1.14, "fewer than 50 cells in well": "enough cells in well"}
{"Gene": "F10", "Tnf reporter robust z-score": -0.39, "fewer than 50 cells in well": "enough cells in well"}
{"Gene": "Snx1", "fewer than 50 cells in well": "fewer than 50 cells per well; well left out of calls"}
{"Gene": "Eef1g", "Tnf reporter robust z-score": -0.22, "fewer than 50 cells in well": "enough cells in well"}
{"Gene": "Stc2", "Tnf reporter robust z-score": 2.97, "fewer than 50 cells in well": "enough cells in well"}
{"Gene": "Telo2", "Tnf reporter robust z-score": -0.09, "fewer than 50 cells in well": "enough cells in well"}
{"Gene": "Or51l14", "Tnf reporter robust z-score": 0.66, "fewer than 50 cells in well": "enough cells in well"}
{"Gene": "Ints3", "Tnf reporter robust z-score": 2.36, "fewer than 50 cells in well": "enough cells in well"}
